# Source: PubChem BioAssay AID504834 (National Center for Advancing Translational Sciences (NCATS), 2011)
# Hit rate of the full screen: of about 320,000 compounds, about 22,000 (6.9%) were called active. The inconclusive results got no clear call from the source; some entries with a clear call stand among them for comparison. Calls follow the shape of the dose curve; as a rule, active = well fitted inhibition curve with a large enough effect; inconclusive = small, poorly fitted or top-dose-only effect, or another doubt; inactive = no such curve, though single readings can be large or run the other way. A potency beside an inconclusive call is a rough fit, not a confirmed value.
# Test: Primary qHTS for delayed death inhibitors of the malarial parasite plastid, 96 hour incubation
# Conditions: P. falciparum luciferase reporter growth; series mostly up to 28.7 µM; activity change, negative = inhibition: at the top concentration
# Outline: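 Parasite growth measured via integrated firefly luciferase reporter in P. falciparum. Infected erythrocytes at 2% hematocrit, 0.05% parasitemia final were treated 96 hours at 37 C under 5% CO2, and luminescence was read.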
# % is scaled to controls: 0 for no effect and ±100 for the full control effect; potency is read from the fitted curve at half-maximal effect.
Structure (SMILES),"activity change, negative = inhibition",Potency
O=C(N/N=C\c1ccccn1)C1c2ccccc2Oc2ccccc21,inactive: 22.8%,
COc1ccc(S(=O)(=O)N2CCC(C(=O)N3CCc4ccccc4C3)CC2)cc1,inactive: 11.8%,
COc1ccc(NC(=O)/C(C#N)=C/c2c(C)nn(-c3ccc(F)cc3)c2Cl)cc1Cl,,"inconclusive: 10.4 µM [inhibitor, single point]"
CCOc1ncccc1C(=O)OCC(=O)NCCc1ccccc1,inactive: 12.7%,
Cc1cccc(CSc2cccc3cccnc23)c1,,active: 4.65 µM
COCCNC(=O)c1cc2nc(-c3ccc(F)cc3)cc(C(F)(F)F)n2n1,,"inconclusive: 5.22 µM [inhibitor, full curve, poor fit]"
Cc1ccc(CSCc2ccc(C(=O)O)o2)cc1,,"inconclusive: 13.1 µM [inhibitor, single point]"
CN1CCN(CCCNC(=O)Cn2ncc3c4ccccc4n(C)c3c2=O)CC1,,"inconclusive: 18.5 µM [inhibitor, single point]"
COc1cc(C(=O)Nc2cccc(-c3nc4cc(C)ccc4o3)c2)cc(OC)c1OC,inactive: -6.3%,
O=C(COC(=O)CCNS(=O)(=O)c1ccc(Cl)cc1)Nc1ccccc1OC(F)F,inactive: 22.1%,
COc1ccccc1CCNC(=O)Cn1ccc2cc(S(=O)(=O)N3CCCC3)ccc21,,"inconclusive: 18.5 µM [inhibitor, single point]"
CC(=O)c1cccc(NC(=S)NNC(=O)c2ccco2)c1,,"inconclusive: 0.0047 µM [inhibitor, full curve, poor fit]"
Cc1noc2ncnc(Sc3ccc(Br)cc3)c12,,"inconclusive: 13.1 µM [inhibitor, single point]"
Cc1cc(/C=C2\C(=N)N3C(SCc4ccccc4)=NSC3=NC2=O)c(C)n1Cc1ccccc1,inactive: 20.5%,
CC(C)C[C@H]1CN=C(Nc2ccccc2)N1CCC(C)c1ccccc1 (some centres not stated),,"inconclusive: 10.4 µM [inhibitor, single point]"
Cc1nc2sc(-c3ccccc3)cc2c(=O)[nH]1,inactive: 131%,
CCc1ccc(-c2nc(CS(=O)CC(=O)NCCc3ccccc3)c(C)o2)cc1 (configuration not stated),,"inconclusive: 1.65 µM [inhibitor, full curve]"
CCOC(=O)CC(NC(=O)CCc1c(C)nc2ncnn2c1C)c1ccc(C)cc1 (configuration not stated),inactive: -19.3%,
CCCc1cc(C(=O)N2CCCC(N3CCN(c4ccccc4C)CC3)C2)n(C)n1 (configuration not stated),,"inconclusive: 18.5 µM [inhibitor, single point]"
Cc1csc(NC(=O)[C@@H](NC(=O)c2ccccc2)C(C)C)n1,inactive: -12.9%,
C#CCN1c2ccccc2Sc2cccnc21,,active: 0.117 µM
COc1cccc(NC(=O)C2CCCN(S(=O)(=O)c3cccc4nonc34)C2)c1 (configuration not stated),,"inconclusive: 7.38 µM [inhibitor, partial curve]"
COC(=O)C1CCN(C(=O)C2CCC(=O)N(CCc3cccc(F)c3)C2)CC1 (configuration not stated),,"inconclusive: 10.4 µM [inhibitor, single point]"
Cc1nc(SCc2ccc(C#N)cc2)n[nH]1,,active: 13.1 µM

# Random excerpt: three entries already listed.
Structure (SMILES),"activity change, negative = inhibition",Potency
COc1ccc(NC(=O)/C(C#N)=C/c2c(C)nn(-c3ccc(F)cc3)c2Cl)cc1Cl,,"inconclusive: 10.4 µM [inhibitor, single point]"
Cc1noc2ncnc(Sc3ccc(Br)cc3)c12,,"inconclusive: 13.1 µM [inhibitor, single point]"
C#CCN1c2ccccc2Sc2cccnc21,,active: 0.117 µM

# (continued)

Structure (SMILES),"activity change, negative = inhibition",Potency
Clc1ccc(-c2csc(N/N=C/c3cccnc3)n2)c(Cl)c1,,active: 4.65 µM
O=C(Nc1cccnc1)c1cccc(NC(=O)c2ccco2)c1,inactive: 43.1%,
CC(CCc1ccccc1)NC(=O)c1ccc2nc(N3CCOCC3)sc2c1 (configuration not stated),,"inconclusive: 1.85 µM [inhibitor, single point]"
CCOC(=O)CC1C(=O)NCCN1c1nc2ccc(C)cn2c(=O)c1/C=C1\SC(=S)N(C(C)CC)C1=O (configuration not stated),,"inconclusive: 3.7 µM [inhibitor, partial curve]"
O=C1C=C(c2cccc(CO)c2)C[C@@H](c2ccc3c(c2)OCO3)C1,,"inconclusive: 14.7 µM [inhibitor, partial curve, poor fit]"
CC1CCCN(CCCNC(=O)C2CC(=O)N(CCc3ccccc3)C2)C1 (configuration not stated),,active: 14.7 µM
O=C(c1ccc2c(=O)n(Cc3ccc4c(c3)OCO4)c(=S)[nH]c2c1)N1CCCCC1,,"inconclusive: 1.04 µM [inhibitor, full curve, poor fit]"
COc1ccc(/C=C2\SC(=NCc3ccccc3)NC2=O)cc1,,"inconclusive: 4.65 µM [inhibitor, partial curve, poor fit]"
CC(NS(=O)(=O)c1ccc(Br)cc1)C(=O)NC1CCCCCC1 (configuration not stated),,"inconclusive: 4.65 µM [inhibitor, partial curve]"
CCC(=O)Nc1cccc(-c2nc3ccc(C)cc3o2)c1,inactive: -16.3%,
Cc1cccc(/C=N/c2sc3c(c2C(=O)OC(C)(C)C)CCN(C)C3)c1O,,active: 1.85 µM
CCn1c(SCC(=O)Nc2ccccc2)nc2nc3c(cc2c1=O)COC(C)(C)C3,,"inconclusive: 13.1 µM [inhibitor, single point]"
COCCn1c(=O)[nH]c2cc(C(=O)Nc3nnc(C)s3)ccc21,inactive: 24.9%,
O=S(=O)(Nc1cc(Cl)ccc1N1CCOCC1)c1ccccc1Cl,,"inconclusive: 4.15 µM [inhibitor, partial curve, poor fit]"
Cc1ccc(-c2nc(N)n(S(=O)(=O)c3ccc(C)cc3)n2)cc1,,"inconclusive: 16.5 µM [inhibitor, single point]"
O=C(CSc1nnc(CNC(=O)C23CC4CC(CC(C4)C2)C3)n1-c1ccccc1)Nc1ccc(F)cc1,,"inconclusive: 8.28 µM [inhibitor, partial curve, poor fit]"
Cc1[nH]c2ccccc2c1N=Nc1c(C)n(C)n(-c2ccccc2)c1=O,,"inconclusive: 13.1 µM [inhibitor, single point]"
COCCCNC(=O)c1ccc2c3c(onc13)-c1ccccc1C2=O,inactive: -24%,
N#C/C(=C\c1cc(Cl)cc(Cl)c1O)C(=O)NC1CCCCC1,,"inconclusive: 10.4 µM [inhibitor, single point]"
O=C(CCS(=O)(=O)c1ccccc1)Nc1nc2cc3c(cc2s1)OCCO3,,active: 5.22 µM
COc1cccc(NC(=O)CSc2nc3ccccc3c(=O)n2Cc2cccs2)c1,inactive: 271%,
Nc1nc(NCCCN2CCOCC2)nc(Nc2ccc(Cl)cc2)c1[N+](=O)[O-],inactive: -12.8%,
COc1ccc(NC(=O)CSc2nnc(Cc3cccn3C)n2-c2ccc(F)cc2)cc1,,"inconclusive: 1.17 µM [inhibitor, full curve]"
